{"source": "patent US20260200999A1", "about": "“SYNTHETIC TRANSCRIPTION FACTORS” (ETH ZURICH, priority 2022, published 2026)", "assay_in_all_cases": "activity in cells", "key": {"[1]": {"target": "T1, MTF (MTERF1 58-399::RelA 430-551) (Homo sapiens) (UniProt Q99551)", "T1 sequence": "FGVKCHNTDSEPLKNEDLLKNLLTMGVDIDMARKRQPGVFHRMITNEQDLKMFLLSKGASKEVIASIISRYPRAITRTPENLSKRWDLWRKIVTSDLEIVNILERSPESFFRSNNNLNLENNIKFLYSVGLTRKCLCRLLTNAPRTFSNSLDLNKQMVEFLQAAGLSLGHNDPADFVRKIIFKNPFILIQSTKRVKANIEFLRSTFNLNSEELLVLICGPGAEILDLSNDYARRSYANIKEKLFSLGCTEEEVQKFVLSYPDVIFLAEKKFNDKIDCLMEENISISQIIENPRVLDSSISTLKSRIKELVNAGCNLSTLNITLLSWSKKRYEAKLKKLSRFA", "conditions": "protein in cells, protein details: RelA 430-551 TAD fusion"}, "[2]": {"target": "T2, MTERF1 58-399::RelA 342-551 (Homo sapiens) (UniProt Q99551)", "T2 sequence": "T1 sequence", "conditions": "stronger than RelA 430-551 fusion, HEK293; protein in cells; protein details: TAD fusion"}, "[3]": {"target": "T3, MTERF1 58-399::RelA 361-551 (Homo sapiens) (UniProt Q99551)", "T3 sequence": "T1 sequence", "conditions": "stronger than RelA 430-551 fusion, HEK293; protein in cells; protein details: TAD fusion"}, "[4]": {"target": "T4, MTERF1 58-399::VP64 (Homo sapiens) (UniProt Q99551)", "T4 sequence": "T1 sequence", "conditions": "lower reporter expression than RelA 430-551 fusion, HEK293; protein in cells; protein details: VP64 fusion"}, "[5]": {"conditions": "mCerulean reporter, HeLa and HEK293"}}, "note": "For some of these results: A negative result means that nothing was seen under these conditions. Protein sequences can lack the tags named with them. For some of these results: For at least one entry, the source does not settle the construct or the ends of the probe.", "data": [{"sequence": "TAAGATGGCAGAGCCCGGTAATTAAGATGGCAGAGCCCGGTAATTAAGATGGCAGAGCCCGGTAATTAAGATGGCAGAGCCCGGTAATTAAGATGGCAGAGCCCGGTAAT (double strand) [5xRE, 0 bp spacing]", "values": [{"measurement": "activity on this sequence", "setting": "[1]; mCerulean reporter, strongest spacing variant in HeLa", "value": "active"}, {"measurement": "activity on this sequence", "setting": "[2]", "value": "active"}, {"measurement": "activity on this sequence", "setting": "[3]", "value": "active"}, {"measurement": "activity on this sequence", "setting": "[4]", "value": "active"}]}, {"sequence": "TAAGATGGCAGAGCCCGGTAATTGCGATTAAGATGGCAGAGCCCGGTAATTGCGATTAAGATGGCAGAGCCCGGTAATTGCGATTAAGATGGCAGAGCCCGGTAATTGCGATTAAGATGGCAGAGCCCGGTAATTGCGATTAAGATGGCAGAGCCCGGTAATTGCGATTAAGATGGCAGAGCCCGGTAATTGCGATTAAGATGGCAGAGCCCGGTAATTGCGATTAAGATGGCAGAGCCCGGTAATTGCGATTAAGATGGCAGAGCCCGGTAATTGCGATTAAGATGGCAGAGCCCGGTAAT (double strand) [11xRE, 6 bp spacing]", "values": [{"measurement": "activity on this sequence", "setting": "[1]; mCerulean reporter, maximum signal in HeLa", "value": "active"}]}, {"sequence": "TAAGATGGCAGAGCCCGGTAATTGCGATTAAGATGGCAGAGCCCGGTAATTGCGATTAAGATGGCAGAGCCCGGTAAT (double strand) [3xRE, 6 bp spacing]", "values": [{"measurement": "activity on this sequence", "setting": "[1]; mCerulean reporter, HeLa and HEK293, signal rises with RE number in HEK293", "value": "active"}]}, {"sequence": "TAAGATGGCAGAGCCCGGTAATAAGGTGCGATTAAGATGGCAGAGCCCGGTAATAAGGTGCGATTAAGATGGCAGAGCCCGGTAATAAGGTGCGATTAAGATGGCAGAGCCCGGTAATAAGGTGCGATTAAGATGGCAGAGCCCGGTAAT (double strand) [5xRE, 10 bp spacing]", "values": [{"measurement": "activity on this sequence", "setting": "[1]; HeLa similar to 6 bp spacing, very little signal in HEK293", "value": "active"}]}, {"sequence": "TAAGATGGCAGAGCCCGGTAATTGCGATTAAGATGGCAGAGCCCGGTAATTGCGATTAAGATGGCAGAGCCCGGTAATTGCGATTAAGATGGCAGAGCCCGGTAATTGCGATTAAGATGGCAGAGCCCGGTAAT (double strand) [5xRE, 6 bp spacing]", "values": [{"measurement": "activity on this sequence", "setting": "[1]; mCerulean reporter, HeLa and HEK293, highest spacing variant in HEK293", "value": "active"}]}, {"sequence": "TAAGATGGCAGAGCCCGGTAATTGCGATTAAGATGGCAGAGCCCGGTAATTGCGATTAAGATGGCAGAGCCCGGTAATTGCGATTAAGATGGCAGAGCCCGGTAATTGCGATTAAGATGGCAGAGCCCGGTAATTGCGATTAAGATGGCAGAGCCCGGTAATTGCGATTAAGATGGCAGAGCCCGGTAATTGCGATTAAGATGGCAGAGCCCGGTAATTGCGATTAAGATGGCAGAGCCCGGTAAT (double strand) [9xRE, 6 bp spacing]", "values": [{"measurement": "activity on this sequence", "setting": "[1]; [5]", "value": "active"}]}, {"sequence": "ATTCTACCGTCTCGGGCCATTAAAGGCATATGATTCTACCGTCTCGGGCCATTAAAGGCATATGATTCTACCGTCTCGGGCCATTAAAGGCATATGATTCTACCGTCTCGGGCCATTAAAGGCATATGATTCTACCGTCTCGGGCCATTA (double strand) [5x scrambled RE, 10 bp spacing]", "values": [{"measurement": "activity on this sequence", "setting": "[1]; no mCerulean expression in HeLa or HEK293, variant of 5xRE, 10 bp spacing", "value": "not active"}]}, {"sequence": "TAAGATGGCAGAGCCCGGTAATAGAGTGCGATAAGATGGCAGAGCCCGGTAATAGAGTGCGATAAGATGGCAGAGCCCGGTAATAGAGTGCGATAAGATGGCAGAGCCCGGTAATAGAGTGCGATAAGATGGCAGAGCCCGGTAATGACTCATACTCTAGAGGGTATATAATGGGGGCC (double strand) [sense-5-9-8 promoter]", "values": [{"measurement": "activity on this sequence", "setting": "[1]; mCitrine, HEK293, none without MTF", "value": "active"}]}, {"sequence": "TAAGATGGCAGAGCCCGGTAATTAAGATGGCAGAGCCCGGTAATGACTCATACTCTAGAGGGTATATAATGGGGGCC (double strand) [sense-2-0-8 promoter]", "values": [{"measurement": "activity on this sequence", "setting": "[1]; mCitrine, HEK293, as much expression as sense-5-9-8, none without MTF", "value": "active"}]}, {"sequence": "TAAGATGGCAGAGCCCGGTAATTGCGATTAAGATGGCAGAGCCCGGTAATTGCGATTAAGATGGCAGAGCCCGGTAATTGCGATTAAGATGGCAGAGCCCGGTAATTGCGATTAAGATGGCAGAGCCCGGTAATTGCGATTAAGATGGCAGAGCCCGGTAATTGCGATTAAGATGGCAGAGCCCGGTAAT (double strand) [7xRE, 6 bp spacing]", "values": [{"measurement": "activity on this sequence", "setting": "[1]; [5]", "value": "active"}]}]}
